Screen size: about 300,000 compounds; about 3,700 (1.2%) were called active. Inconclusive results, whose numbers are uncertain, are shown with a selection of clear calls. Calls follow the shape of the full dose curve; tested in HEK293 cells. Potencies of inconclusive entries are doubtful fits and often do not repeat.
Assay: qHTS for Inhibitors of binding or entry into cells for Lassa Virus; also: nearly all actives have a fitted effect of over 50% in size
Settings: Lassa virus pseudotype entry inhibition, cell reporter; activity change, negative = inhibition: at 37.9 µM (top of the series) unless noted
% is scaled to controls: 0 for no effect and ±100 for the full control effect; potency is read from the fitted curve at half-maximal effect.

Row | SMILES | Potency | activity change, negative = inhibition
1 | COc1ccccc1OCC(=O)NCc1ccco1 | inconclusive: 29.1 µM [activator, single point] | –
2 | C/C(=N/NC(=O)c1cccc(N2CCCC2=O)c1)c1ccncc1 | inconclusive: 3.55 µM [activator, full curve, poor fit] | –
3 | C=C(c1ccccc1O)n1ccnc1 | inconclusive: 3.98 µM [inhibitor, single point] | –
4 | CCOC(=O)/C(=C/c1ccc(OC(F)F)cc1)C1=Nn2c(nnc2-c2ccc(Cl)cc2)SC1 | inconclusive: 2.51 µM [inhibitor, full curve, poor fit] | –
5 | O=c1c2ccccc2nc(/C=C/c2ccc(O)cc2)n1-c1cccc(O)c1 | inconclusive: 1.26 µM [inhibitor, full curve, poor fit] | –
6 | CCOc1ccc(C2c3cc(OC)c(OC)cc3CC(=O)N2c2ccc(OC)cc2)cc1 (centres undefined) | inconclusive: 9.2 µM [inhibitor, partial curve, poor fit] | –
7 | CCCC1=Nc2cc(C(=O)NCc3ccccc3)ccc2Sc2ccccc21 | inconclusive: 6.31 µM [inhibitor, full curve, poor fit] | –
8 | O=C(NCCCN1CCOCC1)C1CCN(S(=O)(=O)c2cccc(Cl)c2Cl)CC1 | inconclusive: 20 µM [activator, partial curve] | –
9 | COCCNC(=S)N/N=C(\C)CCc1ccc2c(c1)OCO2 | – | inactive: -1.86% [at 46.1 µM]
10 | COc1ccc(NC(=O)c2cccc3c(=O)c4c([nH]c23)CCCC4)cc1 | inconclusive: 0.794 µM [inhibitor, full curve, poor fit] | –
11 | CCOC(=O)c1[nH]c(C)c(CCC(=O)N2CCN(c3ccc(OC)cc3)CC2)c1C | – | inactive: -6.42% [at 46.1 µM]
12 | COc1cc(OC)cc(C(=O)Nc2ccc3c(c2)CCCN3C(=O)c2cccs2)c1 | inconclusive: 1.58 µM [inhibitor, full curve, poor fit] | –
13 | COc1ccc(C(C)=O)cc1CSc1nnc(Nc2ccccc2)s1 | inconclusive: 16.4 µM [inhibitor, partial curve, poor fit] | –
14 | CCOC(=O)C1CCN(C(=O)C2CCN(S(=O)(=O)c3c(C)noc3/C=C/c3ccc(C)cc3)CC2)CC1 | inconclusive: 15.8 µM [inhibitor, single point] | –
15 | CCOC(=O)c1c(C)[nH]c(C(=O)OCc2csc(CC(=O)Nc3ccccc3C)n2)c1C | inconclusive: 10 µM [inhibitor, single point] | –
16 | CCOC(=O)c1c(NC(=O)c2ccc(S(=O)(=O)N3CCCC(C)C3)cc2)sc2c1CC(C)(C)NC2(C)C (centres undefined) | inconclusive: 35.5 µM [inhibitor, single point] | –
17 | CCCc1cc(=O)[nH]c(SCC(=O)c2[nH]c(C)c(C(=O)OCC)c2C)n1 | – | inactive: 8.56%
18 | CCOCCCN1C(=O)CN(C2CCCCCC2)C(=O)C1c1ccc(OCC)c(OC)c1 (centres undefined) | inconclusive: 6.31 µM [inhibitor, partial curve, poor fit] | –
19 | COc1ccc(N2CCN(C(c3ccccc3OC)c3nnnn3C3CCCC3)CC2)cc1 (centres undefined) | inconclusive: 11.2 µM [inhibitor, single point] | –
20 | Cc1cccc(C)c1OCc1nnc2c3cnn(C)c3ncn12 | inconclusive: 16.4 µM [activator, partial curve, poor fit] | –
21 | Cc1nc2c(=O)n(C)c(=O)n(C)c2nc1Cl | inconclusive: 14.6 µM [inhibitor, partial curve, poor fit] | –
22 | COC(C(=O)Nc1ccc(S(=O)(=O)Nc2ccc(F)cc2)cc1)c1ccccc1 (centres undefined) | inconclusive: 15.8 µM [inhibitor, partial curve, poor fit] | –

Molecules from the list above that contain nitrogen in an aromatic ring, in the order listed:
Row | SMILES | Potency | activity change, negative = inhibition
2 | C/C(=N/NC(=O)c1cccc(N2CCCC2=O)c1)c1ccncc1 | inconclusive: 3.55 µM [activator, full curve, poor fit] | –
3 | C=C(c1ccccc1O)n1ccnc1 | inconclusive: 3.98 µM [inhibitor, single point] | –
4 | CCOC(=O)/C(=C/c1ccc(OC(F)F)cc1)C1=Nn2c(nnc2-c2ccc(Cl)cc2)SC1 | inconclusive: 2.51 µM [inhibitor, full curve, poor fit] | –
5 | O=c1c2ccccc2nc(/C=C/c2ccc(O)cc2)n1-c1cccc(O)c1 | inconclusive: 1.26 µM [inhibitor, full curve, poor fit] | –
10 | COc1ccc(NC(=O)c2cccc3c(=O)c4c([nH]c23)CCCC4)cc1 | inconclusive: 0.794 µM [inhibitor, full curve, poor fit] | –
11 | CCOC(=O)c1[nH]c(C)c(CCC(=O)N2CCN(c3ccc(OC)cc3)CC2)c1C | – | inactive: -6.42% [at 46.1 µM]
13 | COc1ccc(C(C)=O)cc1CSc1nnc(Nc2ccccc2)s1 | inconclusive: 16.4 µM [inhibitor, partial curve, poor fit] | –
14 | CCOC(=O)C1CCN(C(=O)C2CCN(S(=O)(=O)c3c(C)noc3/C=C/c3ccc(C)cc3)CC2)CC1 | inconclusive: 15.8 µM [inhibitor, single point] | –
15 | CCOC(=O)c1c(C)[nH]c(C(=O)OCc2csc(CC(=O)Nc3ccccc3C)n2)c1C | inconclusive: 10 µM [inhibitor, single point] | –
17 | CCCc1cc(=O)[nH]c(SCC(=O)c2[nH]c(C)c(C(=O)OCC)c2C)n1 | – | inactive: 8.56%
19 | COc1ccc(N2CCN(C(c3ccccc3OC)c3nnnn3C3CCCC3)CC2)cc1 (centres undefined) | inconclusive: 11.2 µM [inhibitor, single point] | –
20 | Cc1cccc(C)c1OCc1nnc2c3cnn(C)c3ncn12 | inconclusive: 16.4 µM [activator, partial curve, poor fit] | –
21 | Cc1nc2c(=O)n(C)c(=O)n(C)c2nc1Cl | inconclusive: 14.6 µM [inhibitor, partial curve, poor fit] | –

Remaining list, next part

Row | SMILES | Potency | activity change, negative = inhibition
23 | COc1nc(-c2ccccc2)ccc1-c1noc(-c2ccccc2)n1 | – | inactive: 17.5%
24 | CNS(=O)(=O)c1cccc(C(=O)OCC(=O)NCc2ccccc2)c1 | – | inactive: 2.38%
25 | Cc1cc(C)n(-c2nc(NC(C)C)nc(NC(C)C)n2)n1 | inconclusive: 25.9 µM [activator, partial curve, poor fit] | –
26 | COC(=O)C(Cc1ccccc1)NC(=O)CNC(=O)c1ccccc1OC (centres undefined) | inconclusive: 3.55 µM [inhibitor, partial curve, poor fit] | –
27 | Cn1c(=O)c2c(-c3ccccc3)n3c(c2n(C)c1=O)C(c1ccc([N+](=O)[O-])cc1)Nc1ccccc1-3 (centres undefined) | – | inactive: -23.5% [at 46.1 µM]
28 | COc1ccc(NC(=O)Cn2c(=O)c3cccn3c3ccccc32)cc1 | – | inactive: -18.6% [at 46.1 µM]
29 | COc1ccc(OC)c(C2CC(=O)Nc3c2c(=O)n(C)c2ncnn32)c1 (centres undefined) | – | inactive: 22.4% [at 46.1 µM]
30 | N#CC(C(=O)c1ccccc1)=C1SCCS1 | inconclusive: 35.5 µM [inhibitor, single point] | –
31 | COCC1CCCCN1C(=O)c1ccc2oc(CCCc3ccccc3)nc2c1 (centres undefined) | inconclusive: 25.1 µM [inhibitor, single point] | –
32 | CS(=O)(=O)CCNCc1cc(-c2cc3c(Nc4ccc(OCc5cccc(F)c5)c(Cl)c4)ncnc3s2)cs1 | inconclusive: 0.996 µM [activator, full curve, poor fit] | –
33 | CSc1ncccc1C(=O)N1CCCC(CCC(=O)NCc2ccc(F)c(F)c2)C1 (centres undefined) | – | inactive: 10.1%
34 | CCN(CC)S(=O)(=O)c1ccc(-c2nnc(SCC(=O)N3c4ccccc4CC3C)o2)cc1 (centres undefined) | inconclusive: 20.6 µM [inhibitor, single point] | –
35 | O=c1c2ccccc2nc(-c2ccccc2)n1Cc1ccccc1 | inconclusive: 0.447 µM [activator, full curve] | –
36 | COc1nonc1NCn1nc(C)cc1C | inconclusive: 7.08 µM [activator, partial curve, poor fit] | –
37 | CCn1cc(C=C2C(=O)N(C)C(=O)N(C)C2=O)c2ccccc21 | – | inactive: 3.51% [at 46.1 µM]
38 | Cc1cccc(-n2c(C)cc(/C=N/NC(N)=S)c2C)c1 | inconclusive: 15.8 µM [inhibitor, single point] | –
39 | FC(F)(F)c1cccc(CN2CCC(c3cc(-c4cccs4)n[nH]3)CC2)c1 | inconclusive: 3.55 µM [inhibitor, partial curve, poor fit] | –
40 | O=C(OCc1nc(-c2ccccc2Cl)no1)c1ccco1 | – | inactive: -2.79%
41 | CC(=O)Nc1ccc(S(=O)(=O)N2CCN(Cc3ccncc3)CC2)cc1 | inconclusive: 6.51 µM [inhibitor, single point] | –
42 | O=C(CCN1C(=O)C2C3C=CC(C3)C2C1=O)Nc1ccc2ncccc2c1 (centres undefined) | – | inactive: 19.5%
43 | NS(=O)(=O)c1ccc(CCNC(=O)CN2CCN(Cc3cccc(C(F)(F)F)c3)CC2)cc1 | inconclusive: 0.562 µM [inhibitor, full curve, poor fit] | –
44 | Cc1ccc(-n2nc(CO)c(C(=O)NCc3cccnc3)n2)cc1C | inconclusive: 7.08 µM [inhibitor, full curve, poor fit] | –

Single entries from the results shown:
CS(=O)(=O)CCNCc1cc(-c2cc3c(Nc4ccc(OCc5cccc(F)c5)c(Cl)c4)ncnc3s2)cs1 | Potency: inconclusive: 0.996 µM [activator, full curve, poor fit]
Cc1ccc(-n2nc(CO)c(C(=O)NCc3cccnc3)n2)cc1C | Potency: inconclusive: 7.08 µM [inhibitor, full curve, poor fit]

The list continues:

Row | SMILES | Potency | activity change, negative = inhibition
45 | O=C(C(Cc1ccc(Cl)cc1)NS(=O)(=O)c1ccccc1)N1CC[C@@]2(O)CCCC[C@H]2C1 (some centres undefined) | inconclusive: 3.55 µM [inhibitor, partial curve, poor fit] | –
46 | CCOc1ccccc1CNS(=O)(=O)c1ccc(-c2cnc(C3CC3)o2)cc1 | inconclusive: 1 µM [inhibitor, full curve, poor fit] | –
47 | COc1ccc(CN(CCN)C2CC(C)N(C)CC2C)cc1 (centres undefined) | inconclusive: 20 µM [inhibitor, single point] | –
48 | CCOc1cc(C2CC(=O)Nc3cc(C)c(C)cc32)ccc1O (centres undefined) | inconclusive: 2.82 µM [inhibitor, full curve] | –
49 | CCOC(=O)C1CCCN(S(=O)(=O)c2ccc(-c3cc(C)no3)s2)C1 (centres undefined) | inconclusive: 11.2 µM [inhibitor, partial curve, poor fit] | –
50 | Cc1ccc(CNc2nc(C)cs2)cc1 | inconclusive: 8.91 µM [inhibitor, partial curve, poor fit] | –
51 | COc1ccc(-c2cnc(SCC(=O)Nc3nc(C(C)(C)C)cs3)n2Cc2ccco2)cc1 | active: 12.6 µM | –
52 | CCC(=O)c1ccc(N2CCN(S(=O)(=O)c3ccccc3)CC2)c(F)c1 | – | inactive: 7.12% [at 46.1 µM]
53 | N/C(=N\OC(=O)c1ccc(Cl)cc1Cl)c1ccc(Cl)cc1 | inconclusive: 1.26 µM [inhibitor, full curve, poor fit] | –
54 | Cc1noc(C)c1COc1ccccc1C(=O)NC(C)CCc1ccccc1 (centres undefined) | inconclusive: 11.2 µM [inhibitor, partial curve, poor fit] | –
55 | CC(O)C(=O)N/N=C/c1cccc2ccccc12 (centres undefined) | inconclusive: 0.164 µM [inhibitor, full curve, poor fit] | –
56 | CCOC(=O)c1c(-c2ccccc2)oc2ccc(NS(=O)(=O)c3ccc(C)cc3)cc12 | inconclusive: 8.91 µM [inhibitor, partial curve, poor fit] | –
57 | CCN(CC)S(=O)(=O)c1ccc(N2CCOCC2)c(NC(=O)C2CC2)c1 | – | inactive: 12.8%
58 | O=C(N/N=C/c1ccccn1)c1cc(-c2cccc3ccccc23)n[nH]1 | inconclusive: 8.2 µM [inhibitor, partial curve, poor fit] | –
59 | O=C(CN1C(=O)c2ccccc2S1(=O)=O)NCc1ccc(F)cc1 | inconclusive: 7.08 µM [activator, partial curve] | –
60 | CC(C)(C)c1ccc(NC(=S)NCc2cccs2)cc1 | inconclusive: 35.5 µM [inhibitor, single point] | –
61 | COc1ccc(C(=O)NCc2ccc(C(=O)NCC(OC)OC)cc2)cc1OC | inconclusive: 1.12 µM [inhibitor, single point] | –
62 | CCOC(=O)CSc1nc2cc3c(cc2cc1C#N)OCCO3 | inconclusive: 7.94 µM [inhibitor, partial curve] | –
63 | CC(C)[C@@H](N)C(=O)N/N=C/c1ccc2ncccc2c1 | inconclusive: 6.31 µM [activator, single point] | –
64 | CCn1c(O)c(N=NC(=O)CNC(=O)/C=C/c2ccccc2)c2ccccc21 | inconclusive: 3.55 µM [inhibitor, full curve] | –
